Measurements from US10584146B2, “Heme peptide materials for anti-inflammatory regenerative nanobiomedicine” (UCHICAGO ARGONNE, LLC, priority 2016, dated 2020).

Test: Carbon monoxide binding, FTIR CO stretching frequency
Type: physicochemical
Settings: for CO stretching frequency νCO: Hemin 100 μM, Peptide 1 mM
Description: Carbon Monoxide Binding. The heme ferrous state was obtained through chemical reduction by add-ing 5 μL of a concentrated sodium dithionite (Sigma-Aldrich) solution (100 mg/mL) into a 1000 μM peptide/100 μM hemin solution (300 μL) in an eppendorf tube. All samples were equilibrated and han-dled in an inert, nitrogen atmosphere (Plas Labs Inc. 830 Series Compact Glove Box). Carbon monoxide (99.99%, Airgas) was added directly through the solution in the eppendorf tube for 30 seconds. 10 μL of the solution was dropcast onto a CaF2 plate where a CO(g) was gently blown over the droplet resulting in a thin film of the PAHeme material. The samples were than analyzed by FTIR spectroscopy (Thermo Scientific, Nicolet 6700 FT-IR spectrophotometer). The samples were stable against oxidation during the course of the experiments.

[1] = pH=7 (micelles; AAHeme forms fibers), ferrous heme

Substance	CO stretching frequency νCO (fibers, pH=10.5, ferrous heme)	CO stretching frequency νCO [1]	ΔνCO, change from micelles to fibers (micelles vs fibers)
c16-AAL3K3-CO2H (AALLLKKK; N-terminal palmitoyl; heme) [AAHeme, control peptide amphiphile without heme coordination site; XXHeme denotes the holo state (coordinated heme)]	1949 cm⁻¹	1951 cm⁻¹ and 1970 cm⁻¹	
c16-AHL3K3-CO2H (AHLLLKKK; N-terminal palmitoyl; heme) [AHHeme, XXHeme denotes the holo state]	1970 cm⁻¹	1967 cm⁻¹	
c16-HHL3K3-CO2H (HHLLLKKK; N-terminal palmitoyl; heme) [HHHeme, XXHeme denotes the holo state]	1961 cm⁻¹	1963 cm⁻¹	
c16-MHL3K3-CO2H (MHLLLKKK; N-terminal palmitoyl; heme) [MHHeme, XXHeme denotes the holo state]	1957 cm⁻¹	1969 cm⁻¹	12 cm⁻¹

Several values for one entry are separate records, joined by “and”; a condition that tells them apart may be missing. Identical values can stand only once.
